From patent US20040087633A1, “Methylidene oxazolidinone compound and preparation method thereof” (Korea Institute of Science and Technology, priority 2002, published 2004)
Converted amounts (≈) assume the structure as drawn. Read-outs that look alike come from different tables or passages of the source.

Tested on: S. aureus ATCC 29213
Assay: Anti-microbial activity test in vitro (agar dilution MIC)
Type: cell-based
Settings: Staphylococcus aureus, read-out: Minimum inhibition concentration (MIC)
Description: Anti-microbial activity test in vitro
Strains were cultivated for 18 hours at 37° C. in Agar Dilution method using Mueller Hinton Agar, and then plane plates inoculated with the strains by diluting them two times gradually were aligned in a row. Minimum inhibition concentration (MIC, μg/ml) for the representative compounds of the present invention, Linezolid (LZD) and vancomycin (VAN) were decided through visual observation, and the results are shown in the following tables 2 and 3.

For `CC(=O)NC[C@H]1CN(c2ccc(N3CCOCC3)c(F)c2)C(=O)O1` [LZD, Linezolid, reference compound], the MIC (ATCC29213, S. aureus ATCC 29213, Agar Dilution method, Mueller Hinton Agar, 18 hours at 37° C.) was 4 µg/mL (≈ 11.9 µM).
`CN[C@H](CC(C)C)C(=O)N[C@H]1C(=O)N[C@@H](CC(N)=O)C(=O)N[C@H]2C(=O)N[C@H]3C(=O)N[C@H](C(=O)N[C@H](C(=O)O)c4cc(O)cc(O)c4-c4cc3ccc4O)[C@H](O)c3ccc(c(Cl)c3)Oc3cc2cc(c3O[C@@H]2O[C@H](CO)[C@@H](O)[C@H](O)[C@H]2O[C@H]2C[C@](C)(N)[C@H](O)[C@H](C)O2)Oc2ccc(cc2Cl)[C@H]1O` [VAN, vancomycin, reference compound] showed an MIC (ATCC29213, 18 h) of 1 µg/mL (≈ 0.69 µM).
